Measurements: the supplement of paper PMC7889204
This is one part of the list. Single values are uncertain, as repeats are few or missing.

The compounds below were run on C6 (assay: cell mass (Coomassie absorbance) after combination of library compound with HMBA, relative to vehicle control (fraction); higher = more remaining cells (less growth inhibition)).

SMILES | cell mass
CNC(=O)Nc1ccc(-c2nc(N3CC4CCC(C3)O4)c3cnn(C4CCC5(CC4)OCCO5)c3n2)cc1 + CC(=O)NCCCCCCNC(C)=O [hexamethylene bisacetamide] | 0.462
CNC(=O)c1ccc2cc([C@@]3(O)CCn4cncc43)ccc2c1 + CC(=O)NCCCCCCNC(C)=O [hexamethylene bisacetamide] | 0.625
Nc1cc(C(F)(F)F)c(-c2cc(N3CCOCC3)nc(N3CCOCC3)n2)cn1 + CC(=O)NCCCCCCNC(C)=O [hexamethylene bisacetamide] | 0.504
COc1cccc2cc(-c3nc([C@H]4CC[C@H](C(=O)O)CC4)n4ncnc(N)c34)[nH]c12 + CC(=O)NCCCCCCNC(C)=O [hexamethylene bisacetamide] | 0.522
O=C(NOCC(O)CO)c1cc(Br)c(F)c(F)c1Nc1ccc(I)cc1F (stereo not given) + CC(=O)NCCCCCCNC(C)=O [hexamethylene bisacetamide] | 0.728
Cc1cc(Nc2nc(N[C@@H](C)c3ncc(F)cn3)ncc2Cl)[nH]n1 + CC(=O)NCCCCCCNC(C)=O [hexamethylene bisacetamide] | 0.55
CCN(CC)Cc1ccc2cc(COC(=O)Nc3ccc(C(=O)NO)cc3)ccc2c1 + CC(=O)NCCCCCCNC(C)=O [hexamethylene bisacetamide] | 0.349
COc1c(C)cnc(Cn2cnc3c(Cl)nc(N)nc32)c1C + CC(=O)NCCCCCCNC(C)=O [hexamethylene bisacetamide] | 0.529
CNC(=O)CN1CCC(Oc2cc3c(Nc4cccc(Cl)c4F)ncnc3cc2OC)CC1 + CC(=O)NCCCCCCNC(C)=O [hexamethylene bisacetamide] | 0.921
N#CC1(c2ccc(NC(=O)c3cccnc3NCc3ccncc3)cc2)CCCC1 [Apatinib] + CC(=O)NCCCCCCNC(C)=O [hexamethylene bisacetamide] | 0.989
Nc1nccc(Oc2ccc(NC(=O)c3c[nH]cc(-c4ccc(F)cc4)c3=O)cc2F)c1Cl + CC(=O)NCCCCCCNC(C)=O [hexamethylene bisacetamide] | 0.844
COc1ccc(-c2ccc3c(N4CCOCC4)nc(N4C[C@@H](C)O[C@@H](C)C4)nc3n2)cc1CO + CC(=O)NCCCCCCNC(C)=O [hexamethylene bisacetamide] | 0.417
CC1=C(C(=O)Nc2cc3cn[nH]c3cc2F)C(c2ccc(C(F)(F)F)cc2)CC(=O)N1 (stereo not given) + CC(=O)NCCCCCCNC(C)=O [hexamethylene bisacetamide] | 0.39
C[C@H]1COC2=C1C(=O)C(=O)c1c2ccc2c1CCCC2(C)C [Cryptotanshinone] + CC(=O)NCCCCCCNC(C)=O [hexamethylene bisacetamide] | 0.529
CC(C)(C)c1cc(NC(=O)Nc2ccc(-c3cn4c(n3)sc3cc(OCCN5CCOCC5)ccc34)cc2)no1 + CC(=O)NCCCCCCNC(C)=O [hexamethylene bisacetamide] | 0.758
COc1cc(Nc2ncc(F)c(Nc3ccc4c(n3)NC(=O)C(C)(C)O4)n2)cc(OC)c1OC [R406(free base)] + CC(=O)NCCCCCCNC(C)=O [hexamethylene bisacetamide] | 0.267
COc1cccc(Nc2c(C(N)=O)cnc3c(C)cc(S(=O)(=O)c4cccc(C(=O)N(C)C)c4)cc23)c1 + CC(=O)NCCCCCCNC(C)=O [hexamethylene bisacetamide] | 0.403
COc1ccc(S(=O)(=O)N(C(C)=O)c2ccccc2/C=C/c2cc[n+]([O-])cc2)cc1 + CC(=O)NCCCCCCNC(C)=O [hexamethylene bisacetamide] | 0.382
CCN1CCN(Cc2ccc(-c3cc4c(N[C@H](C)c5ccccc5)ncnc4[nH]3)cc2)CC1 + CC(=O)NCCCCCCNC(C)=O [hexamethylene bisacetamide] | 0.715
Cc1cc(Nc2nc(N[C@@H](C)c3ccc(F)cc3)c(C#N)cc2F)n[nH]1 + CC(=O)NCCCCCCNC(C)=O [hexamethylene bisacetamide] | 0.494

A stretch from further up:
SMILES | cell mass
CC(C)(C)c1cc(NC(=O)Nc2ccc(-c3cn4c(n3)sc3cc(OCCN5CCOCC5)ccc34)cc2)no1 + CC(=O)NCCCCCCNC(C)=O [hexamethylene bisacetamide] | 0.758
COc1cc(Nc2ncc(F)c(Nc3ccc4c(n3)NC(=O)C(C)(C)O4)n2)cc(OC)c1OC [R406(free base)] + CC(=O)NCCCCCCNC(C)=O [hexamethylene bisacetamide] | 0.267

Next part.

SMILES | cell mass
O=C1NC(=O)/C(=C/c2ccc3nccc(-c4ccncc4)c3c2)S1 + CC(=O)NCCCCCCNC(C)=O [hexamethylene bisacetamide] | 0.187
C=CC(=O)Nc1cccc(Oc2nc(Nc3ccc(N4CCN(C)CC4)cc3OC)ncc2Cl)c1 + CC(=O)NCCCCCCNC(C)=O [hexamethylene bisacetamide] | 0.43
CCCCCCCCCCC[C@@H](C[C@@H]1OC(=O)[C@H]1CCCCCC)OC(=O)[C@H](CC(C)C)NC=O [Orlistat] + CC(=O)NCCCCCCNC(C)=O [hexamethylene bisacetamide] | 0.598
CCO[C@@H]1OC(=O)C[C@@H]1NC(=O)[C@@H]1CCCN1C(=O)[C@@H](NC(=O)c1ccc(N)c(Cl)c1)C(C)(C)C + CC(=O)NCCCCCCNC(C)=O [hexamethylene bisacetamide] | 0.702
O=C(O)Cc1ccccc1Nc1c(Cl)cccc1Cl [Diclofenac sodium] + CC(=O)NCCCCCCNC(C)=O [hexamethylene bisacetamide] | 0.832
CCc1cccc(CC)c1NC(=O)N1Cc2[nH]nc(NC(=O)c3ccc(N4CCN(C)CC4)cc3)c2C1 + CC(=O)NCCCCCCNC(C)=O [hexamethylene bisacetamide] | 0.617
Cc1ccc(C(=O)N(CCCN)[C@@H](c2oc3cc(Cl)ccc3c(=O)c2Cc2ccccc2)C(C)C)cc1 + CC(=O)NCCCCCCNC(C)=O [hexamethylene bisacetamide] | 0.59
COc1ncc(-c2ccc3nccc(-c4ccnnc4)c3c2)cc1NS(=O)(=O)c1ccc(F)cc1F + CC(=O)NCCCCCCNC(C)=O [hexamethylene bisacetamide] | 0.399
COc1ccc2c(c1)c(CC(=O)O)c(C)n2C(=O)c1ccc(Cl)cc1 [Indomethacin] + CC(=O)NCCCCCCNC(C)=O [hexamethylene bisacetamide] | 0.583
CN(C)C1CCN(C(=O)c2ccc(NC(=O)Nc3ccc(-c4nc(N5CCOCC5)nc(N5CCOCC5)n4)cc3)cc2)CC1 + CC(=O)NCCCCCCNC(C)=O [hexamethylene bisacetamide] | 0.463
CC[C@@H]1C(=O)N(C)c2cnc(Nc3ccc(C(=O)N[C@H]4CC[C@H](N5CCN(CC6CC6)CC5)CC4)cc3OC)nc2N1C(C)C + CC(=O)NCCCCCCNC(C)=O [hexamethylene bisacetamide] | 0.197
Cc1ccc(-c2cc(C(F)(F)F)nn2-c2ccc(S(N)(=O)=O)cc2)cc1 [Celecoxib] + CC(=O)NCCCCCCNC(C)=O [hexamethylene bisacetamide] | 0.351
COC1=C2C[C@@H](C)C[C@H](OC)[C@H](O)[C@@H](C)/C=C(\C)[C@H](OC(N)=O)[C@@H](OC)/C=C\C=C(/C)C(=O)NC(=CC1=O)C2=O [Geldanamycin] + CC(=O)NCCCCCCNC(C)=O [hexamethylene bisacetamide] | 0.384
O=C(NC[C@H](O)CO)c1ccncc1Nc1ccc(I)cc1F + CC(=O)NCCCCCCNC(C)=O [hexamethylene bisacetamide] | 0.276
CC(C)Cc1ccc(C(C)C(=O)O)cc1 (stereo not given) [Ibuprofen Lysine] + CC(=O)NCCCCCCNC(C)=O [hexamethylene bisacetamide] | 0.832
Cc1ccc2c(=O)c3cccc(CC(=O)O)c3oc2c1C + CC(=O)NCCCCCCNC(C)=O [hexamethylene bisacetamide] | 0.498
CC(C)(C)c1[nH]cnc1/C=c1\[nH]c(=O)/c(=C/c2ccccc2)[nH]c1=O + CC(=O)NCCCCCCNC(C)=O [hexamethylene bisacetamide] | 0.272
C/C(=C\C(=O)Nc1ccccc1C(=O)O)c1ccc2ccccc2c1 + CC(=O)NCCCCCCNC(C)=O [hexamethylene bisacetamide] | 0.41
C=CC(=O)Nc1cccc(Oc2nc(Nc3ccc(N4CCN(C)CC4)cc3)ncc2Cl)c1 + CC(=O)NCCCCCCNC(C)=O [hexamethylene bisacetamide] | 0.854
CCCNC(=O)Nc1ccc(Oc2ncnc3cc(OC)c(OC)cc23)cc1Cl + CC(=O)NCCCCCCNC(C)=O [hexamethylene bisacetamide] | 0.64
